PubChem BioAssay AID1508588, Peter MacCallum Cancer Centre, 2020

- Test: 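Genome-wide search for knock-downs that heighten vemurafenib action in melanoma cells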 (primary screen)
- Cells: human WM266.4 melanoma cells (BRAF V600 mutant)
- Reagent: siRNA pool against human genes, 40 nM
- Time to read-out: 96 h from transfection to read-out
- Challenge: vemurafenib 300 nM (about IC25), added 48 h after transfection, for 48 h; comparison arm got DMSO vehicle only
- Read-out: 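Cell gain (DAPI nuclei at end minus before drug, mean of two replicates) and medium lactate by absorbance per cell, both as ratio to non-targeting siRNA, also grouped into fold-change classes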
- Reading the numbers: cell gain with vemurafenib: higher = more cell gain than with non-targeting siRNA; lactate per cell with vemurafenib: higher = more lactate made per cell
- Active means: 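Enhancement is called by pairing each knock-down's vehicle-arm and drug-arm fold-change classes for viability or glycolysis; which class combinations qualify is not given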
- Meaning of the calls: active = enhances vemurafenib effect; inactive = no enhancement seen
The deposit covers about 18,000 reagents; shown is a part drawn at random. 790 of them (4.4%) count as active. 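Calls rest on a combination of fold-change classes in drug and vehicle arms, not all shown here.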 The numbers tell different reagents against one gene apart. A reagent listed more than once was tested more than once; the source does not tell the runs apart.

gene | reagent no. | cell gain with vemurafenib | lactate per cell with vemurafenib | Outcome
RPS2 (GeneID 6187) | 1 | -0.03 | 3.64 | inactive
ME3 (GeneID 10873) | 1 | 0.46 | 0.7 | inactive
ABHD16A (GeneID 7920) | 1 | 0.4 | 1.29 | inactive
OR4C6 (GeneID 219432) | 1 | 0.46 | 1.56 | inactive
CDK14 (GeneID 5218) | 1 | 0.37 | 0.34 | active
PELI1 (GeneID 57162) | 1 | 0.25 | 0.74 | inactive
OSTM1 (GeneID 28962) | 1 | 0.04 | 2.31 | inactive
TOMM7 (GeneID 54543) | 1 | 0.12 | 1.99 | inactive
MOG (GeneID 4340) | 1 | 0.32 | 1.94 | inactive
GOLGA5 (GeneID 9950) | 1 | 0.87 | 0.82 | inactive
SIAH1 (GeneID 6477) | 1 | 0.5 | 1.09 | inactive
SFT2D1 (GeneID 113402) | 1 | 0.72 | 0.48 | active
OSBPL8 (GeneID 114882) | 1 | 0.38 | 1.04 | inactive
CDC45 (GeneID 8318) | 1 | 0.3 | 1.23 | inactive
ENPEP (GeneID 2028) | 1 | 0.62 | 1.54 | inactive
PRG3 (GeneID 10394) | 1 | 0.38 | 0.4 | active
TP53RK (GeneID 112858) | 1 | 0.53 | 0.48 | inactive
TP53RK (GeneID 112858) | 1 | 0.52 | 0.73 | inactive
HNRNPD (GeneID 3184) | 1 | 0.39 | 0.96 | inactive
LRCH2 (GeneID 57631) | 1 | 0.55 | 0.29 | active
PRAMEF4 (GeneID 400735) | 1 | 0.25 | 1.82 | inactive
SUOX (GeneID 6821) | 1 | 0.35 | 1.12 | inactive
F9 (GeneID 2158) | 1 | 0.26 | 0.84 | inactive
DDX60 (GeneID 55601) | 1 | 0.72 | 0.68 | inactive
F5 (GeneID 2153) | 1 | 0.65 | 1.12 | inactive
LMO3 (GeneID 55885) | 1 | 0.61 | 1.29 | inactive
NPEPPS (GeneID 9520) | 1 | 0.83 | 1.3 | inactive
KRR1 (GeneID 11103) | 1 | 1.2 | 0.64 | inactive
HMGB1 (GeneID 3146) | 1 | 0.62 | 1.46 | inactive
CLPX (GeneID 10845) | 1 | 0.25 | 0.98 | inactive
SUB1 (GeneID 10923) | 1 | 0.94 | 0.68 | inactive
CRTAC1 (GeneID 55118) | 1 | 0.22 | 1.19 | inactive
TPGS2 (GeneID 25941) | 1 | 0.34 | 1.68 | inactive
ZBTB44 (GeneID 29068) | 1 | 1.05 | 0.77 | inactive
KCNV2 (GeneID 169522) | 1 | 0.41 | 0.6 | active
UBR1 (GeneID 197131) | 1 | 0.71 | 1.2 | inactive
AKT1S1 (GeneID 84335) | 1 | 1 | 1.27 | inactive
TTC14 (GeneID 151613) | 1 | 1.12 | 0.82 | inactive
UBE3A (GeneID 7337) | 1 | 0.37 | 0.44 | inactive
ANKRD36 (GeneID 375248) | 1 | 1 | 0.45 | inactive
BBS2 (GeneID 583) | 1 | 0.37 | 0.94 | inactive
ZNF180 (GeneID 7733) | 1 | 0.72 | 0.52 | inactive
NBPF10 (GeneID 100132406) | 1 | 0.78 | 0.53 | inactive
SPART (GeneID 23111) | 1 | 0.84 | 0.59 | inactive
TUSC2 (GeneID 11334) | 1 | 1.04 | 0.52 | inactive
GJB4 (GeneID 127534) | 1 | 0.96 | 0.68 | inactive
NFXL1 (GeneID 152518) | 1 | 0.71 | 1.17 | inactive
HECTD4 (GeneID 283450) | 1 | 0.81 | 1.12 | inactive
CCDC190 (GeneID 339512) | 1 | 1.07 | 1.08 | inactive
ZNF197 (GeneID 10168) | 1 | 0.32 | 0.87 | inactive
CDK5 (GeneID 1020) | 1 | 1.01 | 0.57 | inactive
MRPS14 (GeneID 63931) | 1 | 0.92 | 1.04 | inactive
RPL24 (GeneID 6152) | 1 | -0.02 | 1.12 | inactive
TAS2R45 (GeneID 259291) | 1 | 0.49 | 0.82 | inactive
NEK7 (GeneID 140609) | 1 | 1.34 | 0.75 | inactive
SENP5 (GeneID 205564) | 1 | 0.48 | 1.17 | inactive
GEMIN4 (GeneID 50628) | 1 | 0.16 | 1.25 | inactive
NPB (GeneID 256933) | 1 | 1.18 | 0.58 | inactive
IL23A (GeneID 51561) | 1 | 0.42 | 1.92 | inactive
VWA8 (GeneID 23078) | 1 | 1.11 | 0.52 | inactive
IGLL1 (GeneID 3543) | 1 | 0.22 | 2.58 | inactive
THEM6 (GeneID 51337) | 1 | 0.9 | 0.93 | inactive
TMED2 (GeneID 10959) | 1 | 0.88 | 0.78 | inactive
IARS1 (GeneID 3376) | 1 | 0.28 | 1.28 | inactive
NACC1 (GeneID 112939) | 1 | 0.47 | 0.9 | inactive
PARD6A (GeneID 50855) | 1 | 0.34 | 0.8 | inactive
TXNDC9 (GeneID 10190) | 1 | 0.16 | -0.18 | inactive
DCDC1 (GeneID 341019) | 1 | 0.65 | 1.29 | inactive
DCDC1 (GeneID 341019) | 2 | 0.74 | 1.22 | inactive
ZNF354B (GeneID 117608) | 1 | 0.72 | 1.17 | inactive
LHFPL1 (GeneID 340596) | 1 | 1.16 | 0.7 | inactive
AGAP6 (GeneID 414189) | 1 | 0.77 | 0.96 | inactive
SOCS4 (GeneID 122809) | 1 | 1.04 | 0.38 | active
SLC24A3 (GeneID 57419) | 1 | 0.43 | 0.57 | inactive
ZNF787 (GeneID 126208) | 1 | 0.68 | 0.5 | inactive
ELP1 (GeneID 8518) | 1 | 0.59 | 0.96 | inactive
POP5 (GeneID 51367) | 1 | 0.91 | 0.94 | inactive
RASAL1 (GeneID 8437) | 1 | 0.71 | 0.83 | inactive
MADCAM1 (GeneID 8174) | 1 | 0.7 | 0.29 | inactive
PTGIR (GeneID 5739) | 1 | 0.73 | 1.28 | inactive
LCN15 (GeneID 389812) | 1 | 0.18 | 0.43 | inactive
HK2 (GeneID 3099) | 1 | 0.37 | 1.22 | inactive
ABCB4 (GeneID 5244) | 1 | 0.16 | 0.92 | inactive
DIO2 (GeneID 1734) | 1 | 0.71 | 0.73 | inactive
CASTOR1 (GeneID 652968) | 1 | 0.84 | 0.84 | inactive
CACNB4 (GeneID 785) | 1 | 0.77 | 0.34 | inactive
ZIM2 (GeneID 23619) | 1 | 0.62 | 0.68 | inactive
SNTG2 (GeneID 54221) | 1 | 1.03 | 0.76 | inactive
PSPH (GeneID 5723) | 1 | 0.86 | 0.9 | inactive
GOLGA6A (GeneID 342096) | 1 | 1.2 | 0.96 | inactive
NOL12 (GeneID 79159) | 1 | 0.37 | 1.14 | inactive
SEPTIN7 (GeneID 989) | 1 | 0.72 | 0.77 | inactive
CBLN1 (GeneID 869) | 1 | 0.49 | 0.68 | inactive
USP34 (GeneID 9736) | 1 | 1.07 | 0.76 | inactive
ARHGEF15 (GeneID 22899) | 1 | 0.89 | 0.68 | inactive
TP63 (GeneID 8626) | 1 | 0.78 | 0.64 | inactive
GPR32 (GeneID 2854) | 1 | 0.17 | 0.54 | active
CTAGE1 (GeneID 64693) | 1 | 0.83 | 0.82 | inactive
DAZ4 (GeneID 57135) | 1 | 0.36 | 0.97 | inactive
KIZ (GeneID 55857) | 1 | 0.38 | 0.4 | inactive
RPL18A (GeneID 6142) | 1 | -0.02 | 1.98 | inactive
GTF2A2 (GeneID 2958) | 1 | 1.39 | 0.52 | inactive
NTF4 (GeneID 4909) | 1 | 0.48 | 1.4 | inactive
ROGDI (GeneID 79641) | 1 | 0.05 | 1.2 | inactive
KCNJ8 (GeneID 3764) | 1 | 0.54 | 1.81 | inactive
FZD3 (GeneID 7976) | 1 | 0.55 | 0.62 | inactive
SLC22A10 (GeneID 387775) | 1 | 0.79 | 0.49 | inactive

15 entries already listed, sorted by “cell gain with vemurafenib”, high to low.
gene | reagent no. | cell gain with vemurafenib | lactate per cell with vemurafenib | Outcome
GOLGA5 (GeneID 9950) | 1 | 0.87 | 0.82 | inactive
SFT2D1 (GeneID 113402) | 1 | 0.72 | 0.48 | active
ENPEP (GeneID 2028) | 1 | 0.62 | 1.54 | inactive
SIAH1 (GeneID 6477) | 1 | 0.5 | 1.09 | inactive
ME3 (GeneID 10873) | 1 | 0.46 | 0.7 | inactive
OR4C6 (GeneID 219432) | 1 | 0.46 | 1.56 | inactive
ABHD16A (GeneID 7920) | 1 | 0.4 | 1.29 | inactive
OSBPL8 (GeneID 114882) | 1 | 0.38 | 1.04 | inactive
PRG3 (GeneID 10394) | 1 | 0.38 | 0.4 | active
CDK14 (GeneID 5218) | 1 | 0.37 | 0.34 | active
MOG (GeneID 4340) | 1 | 0.32 | 1.94 | inactive
CDC45 (GeneID 8318) | 1 | 0.3 | 1.23 | inactive
PELI1 (GeneID 57162) | 1 | 0.25 | 0.74 | inactive
TOMM7 (GeneID 54543) | 1 | 0.12 | 1.99 | inactive
OSTM1 (GeneID 28962) | 1 | 0.04 | 2.31 | inactive
